{"source": "the supplement of paper PMC5407854", "about": "“Inhibitor of ppGalNAc-T3-mediated O-glycosylation blocks cancer cell invasiveness and lowers FGF23 levels” (eLife, 2017)", "note": "The other results are listed elsewhere or left out. Small differences around the control level are noise."}
{"tested_on": "ppGalNAc-T3 sensor", "assay": "T3 sensor activation Q score (MG/GFP ratio z-score vs DMSO controls) (SD units); higher = more sensor activation (inhibition of ppGalNAc-T3 glycosylation)", "conditions": "HEK293 sensor cells; 10 µM; 6 h", "protocol": "(§1)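 Cells were treated with compound at 10 uM for 6 h, then MG/GFP ratio was read by flow cytometry (10,000 cells per well, duplicate wells). Q = (R - R_neg)/SD_neg relative to DMSO vehicle controls; the signal rises when the glycosyltransferase is inhibited.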"}
{"smiles": "CS(=O)(=O)Nc1ccc(S(=O)(=O)N2CCCCC2)cc1", "T3 sensor activation Q score": 0.6}
{"smiles": "Cc1ccc(S(=O)(=O)N2CCN(C)CC2)cc1", "T3 sensor activation Q score": -0.02}
{"smiles": "O=C(c1ccc(Br)cc1)N1CCC(Cc2ccccc2)CC1", "T3 sensor activation Q score": -0.165}
{"smiles": "Cc1c(NC(=O)c2ccc(Cl)cc2)c(=O)n(-c2ccccc2)n1C", "T3 sensor activation Q score": -0.385}
{"smiles": "CCCNS(=O)(=O)c1ccc([N+](=O)[O-])cc1", "T3 sensor activation Q score": 0.155}
{"smiles": "O=C(O)c1ccc(C(=O)O)c(-c2ccccc2)c1", "T3 sensor activation Q score": 1.5}
{"smiles": "O=[N+]([O-])c1ccc(N2CCN(Cc3cccs3)CC2)cc1", "T3 sensor activation Q score": 1.36}
{"smiles": "COc1ccc(CN2CCN(c3cc(C)ccc3C)CC2)cc1OC", "T3 sensor activation Q score": -0.315}
{"smiles": "Cc1ccc(S(=O)(=O)n2ccc(C)n2)cc1", "T3 sensor activation Q score": 2.6}
{"smiles": "CC(C)c1ccc(NC(=O)c2cccs2)cc1", "T3 sensor activation Q score": -0.075}
{"smiles": "O=C(O)c1ccc(Br)c(S(=O)(=O)N2CCCCC2)c1", "T3 sensor activation Q score": 0.475}
{"smiles": "O=C(c1cccs1)N1CCN(c2ccc([N+](=O)[O-])cc2)CC1", "T3 sensor activation Q score": 0.75}
{"smiles": "Cc1ccc2c(C)nc(N=C(N)N)nc2c1", "T3 sensor activation Q score": 0.43}
{"smiles": "CC(=O)c1ccc(N2CCOCC2)c(F)c1", "T3 sensor activation Q score": -0.145}
{"smiles": "CCc1ccc(S(=O)(=O)Nc2ccccc2OC)cc1", "T3 sensor activation Q score": -0.645}
{"smiles": "Fc1ccc(CN2CCOCC2)cc1", "T3 sensor activation Q score": -0.16}
{"smiles": "CNC(=O)Nc1ccc(C(=O)NC)cc1", "T3 sensor activation Q score": 0.63}
{"smiles": "Oc1ccc(O)c([S+]2CCCCC2)c1", "T3 sensor activation Q score": -0.445}
{"smiles": "Nc1nc(-c2ccccc2)cc(-c2ccccc2)n1", "T3 sensor activation Q score": 0.65}
{"smiles": "Cc1cccc(NC2=C(N(C)C)C(=O)c3ccccc3C2=O)c1", "T3 sensor activation Q score": 0.375}
{"smiles": "Cc1ccc(SC2CC(=O)N(c3ccccc3)C2=O)cc1", "note": "(stereo not given)", "T3 sensor activation Q score": 0.385}
{"smiles": "CN(N)c1nc(N2CCOCC2)nc(N2CCOCC2)n1", "T3 sensor activation Q score": 0.635}
{"smiles": "Fc1cccc(CN2CCN(c3ccccn3)CC2)c1", "T3 sensor activation Q score": -0.155}
{"smiles": "CCCSc1nnc2c(n1)[nH]c1ccccc12", "T3 sensor activation Q score": -0.515}
{"smiles": "O=C(Nc1ccc(Nc2ccccc2)cc1)C1CC1c1ccccc1", "note": "(stereo not given)", "T3 sensor activation Q score": -0.505}
{"smiles": "COc1ccc(C2(C(N)=O)CCCC2)cc1OC", "T3 sensor activation Q score": -0.665}
{"smiles": "Cc1ccc(C)c(C(=O)c2ccccc2C(=O)O)c1", "T3 sensor activation Q score": 0.27}
{"smiles": "Brc1ccccc1CN1CCc2ccccc2C1", "T3 sensor activation Q score": -0.31}
{"smiles": "CCc1ccccc1NC(=O)C1CCCCC1C(=O)O", "note": "(stereo not given)", "T3 sensor activation Q score": 0.355}
{"smiles": "CCN(C(=O)CCc1ccccc1)c1ccccc1", "T3 sensor activation Q score": -1.19}
{"smiles": "Nc1nnc(CCc2ccccc2)s1", "T3 sensor activation Q score": 0.385}
{"smiles": "Cc1ccc(CN2CCN(C(=O)c3ccccc3F)CC2)cc1", "T3 sensor activation Q score": -0.835}
{"smiles": "CC(=O)N1CCN(Cc2ccc(Cl)cc2Cl)CC1", "T3 sensor activation Q score": 0.14}
{"smiles": "O=[N+]([O-])c1cccc(CN2CCCC(O)C2)c1", "note": "(stereo not given)", "T3 sensor activation Q score": 0.375}
{"smiles": "CCOc1ccccc1CN1CCC(O)CC1", "T3 sensor activation Q score": 0.705}
{"smiles": "CC(=O)C1=C(O)C(=O)N(CC(=O)O)C1c1ccccc1", "note": "(stereo not given)", "T3 sensor activation Q score": -0.46}
{"smiles": "O=C(O)CNC(=O)Cc1ccccc1", "T3 sensor activation Q score": -0.27}
{"smiles": "COc1ccc(CC(=O)NCc2ccccc2)cc1", "T3 sensor activation Q score": 0.35}
{"smiles": "O=Cc1ccc(S(=O)(=O)c2ccc(Cl)cc2)cc1", "T3 sensor activation Q score": 0.07}
{"smiles": "O=C(Nc1cnc2ccccc2c1)C12CC3CC(CC(C3)C1)C2", "T3 sensor activation Q score": 0.025}
{"tested_on": "ppGalNAc-T2 sensor", "assay": "T2 sensor activation Q score (MG/GFP ratio z-score vs DMSO controls) (SD units); higher = more sensor activation (inhibition of ppGalNAc-T2 glycosylation)", "conditions": "HEK293 sensor cells; 10 µM; 6 h", "protocol": "as §1"}
{"smiles": "CS(=O)(=O)Nc1ccc(S(=O)(=O)N2CCCCC2)cc1", "T2 sensor activation Q score": -0.325}
{"smiles": "Cc1ccc(S(=O)(=O)N2CCN(C)CC2)cc1", "T2 sensor activation Q score": -0.245}
{"smiles": "O=C(c1ccc(Br)cc1)N1CCC(Cc2ccccc2)CC1", "T2 sensor activation Q score": 0.47}
{"smiles": "Cc1c(NC(=O)c2ccc(Cl)cc2)c(=O)n(-c2ccccc2)n1C", "T2 sensor activation Q score": -0.46}
{"smiles": "CCCNS(=O)(=O)c1ccc([N+](=O)[O-])cc1", "T2 sensor activation Q score": 0.295}
{"smiles": "O=C(O)c1ccc(C(=O)O)c(-c2ccccc2)c1", "T2 sensor activation Q score": -0.49}
{"smiles": "O=[N+]([O-])c1ccc(N2CCN(Cc3cccs3)CC2)cc1", "T2 sensor activation Q score": -0.615}
{"smiles": "COc1ccc(CN2CCN(c3cc(C)ccc3C)CC2)cc1OC", "T2 sensor activation Q score": 0.24}
{"smiles": "Cc1ccc(S(=O)(=O)n2ccc(C)n2)cc1", "T2 sensor activation Q score": 1.86}
{"smiles": "CC(C)c1ccc(NC(=O)c2cccs2)cc1", "T2 sensor activation Q score": 0.585}
{"smiles": "O=C(O)c1ccc(Br)c(S(=O)(=O)N2CCCCC2)c1", "T2 sensor activation Q score": -0.3}
{"smiles": "O=C(c1cccs1)N1CCN(c2ccc([N+](=O)[O-])cc2)CC1", "T2 sensor activation Q score": 0.375}
{"smiles": "Cc1ccc2c(C)nc(N=C(N)N)nc2c1", "T2 sensor activation Q score": -1.23}
{"smiles": "CC(=O)c1ccc(N2CCOCC2)c(F)c1", "T2 sensor activation Q score": 0.405}
{"smiles": "CCc1ccc(S(=O)(=O)Nc2ccccc2OC)cc1", "T2 sensor activation Q score": -1.23}
{"smiles": "Fc1ccc(CN2CCOCC2)cc1", "T2 sensor activation Q score": 0.48}
{"smiles": "CNC(=O)Nc1ccc(C(=O)NC)cc1", "T2 sensor activation Q score": 0.075}
{"smiles": "Oc1ccc(O)c([S+]2CCCCC2)c1", "T2 sensor activation Q score": -0.235}
{"smiles": "Nc1nc(-c2ccccc2)cc(-c2ccccc2)n1", "T2 sensor activation Q score": -0.795}
{"smiles": "Cc1cccc(NC2=C(N(C)C)C(=O)c3ccccc3C2=O)c1", "T2 sensor activation Q score": 0.11}
{"smiles": "Cc1ccc(SC2CC(=O)N(c3ccccc3)C2=O)cc1", "note": "(stereo not given)", "T2 sensor activation Q score": -0.87}
{"smiles": "CN(N)c1nc(N2CCOCC2)nc(N2CCOCC2)n1", "T2 sensor activation Q score": 0.19}
{"smiles": "Fc1cccc(CN2CCN(c3ccccn3)CC2)c1", "T2 sensor activation Q score": 0.155}
{"smiles": "CCCSc1nnc2c(n1)[nH]c1ccccc12", "T2 sensor activation Q score": -0.425}
{"smiles": "O=C(Nc1ccc(Nc2ccccc2)cc1)C1CC1c1ccccc1", "note": "(stereo not given)", "T2 sensor activation Q score": 1.16}
{"smiles": "COc1ccc(C2(C(N)=O)CCCC2)cc1OC", "T2 sensor activation Q score": 0.635}
{"smiles": "Cc1ccc(C)c(C(=O)c2ccccc2C(=O)O)c1", "T2 sensor activation Q score": -0.6}
{"smiles": "Brc1ccccc1CN1CCc2ccccc2C1", "T2 sensor activation Q score": 0.725}
{"smiles": "CCc1ccccc1NC(=O)C1CCCCC1C(=O)O", "note": "(stereo not given)", "T2 sensor activation Q score": 0.87}
{"smiles": "CCN(C(=O)CCc1ccccc1)c1ccccc1", "T2 sensor activation Q score": -0.245}
{"smiles": "Nc1nnc(CCc2ccccc2)s1", "T2 sensor activation Q score": -0.13}
{"smiles": "Cc1ccc(CN2CCN(C(=O)c3ccccc3F)CC2)cc1", "T2 sensor activation Q score": 0.06}
{"smiles": "CC(=O)N1CCN(Cc2ccc(Cl)cc2Cl)CC1", "T2 sensor activation Q score": 0.47}
{"smiles": "O=[N+]([O-])c1cccc(CN2CCCC(O)C2)c1", "note": "(stereo not given)", "T2 sensor activation Q score": -0.275}
{"smiles": "CCOc1ccccc1CN1CCC(O)CC1", "T2 sensor activation Q score": 0.065}
{"smiles": "CC(=O)C1=C(O)C(=O)N(CC(=O)O)C1c1ccccc1", "note": "(stereo not given)", "T2 sensor activation Q score": 0.665}
{"smiles": "O=C(O)CNC(=O)Cc1ccccc1", "T2 sensor activation Q score": -0.54}
{"smiles": "COc1ccc(CC(=O)NCc2ccccc2)cc1", "T2 sensor activation Q score": -0.485}
{"smiles": "O=Cc1ccc(S(=O)(=O)c2ccc(Cl)cc2)cc1", "T2 sensor activation Q score": 0.71}
{"smiles": "O=C(Nc1cnc2ccccc2c1)C12CC3CC(CC(C3)C1)C2", "T2 sensor activation Q score": 0.83}
